According to patent publication US20050095674A1, “Cannabinoid receptor interacting proteins and methods of use” (priority 2003, published 2005):
No constants are given. Whether binding was seen depends on the method and setting. Some results given as binding are weak or reduced against the parent protein; the word gives no strength.

Target: amino acids at positions 418-472 of the human cannabinoid receptor (CB1) fused to the GALA DNA binding domain (human) (UniProt P04386+P21554)
Experiment: yeast two-hybrid, beta-galactosidase colour

binding: binds
B1: CRIP1b exon 1 (amino acids 34-60 of SEQ ID NO:2) and exon 2 (amino acids 61-110 of SEQ ID NO:2) in combination (protein, not shown: large carriers)
chain: QNRTIKLLTGSSYKVEVKIKPSTLQVENISIGGVLVPLELKSKEPDGDRVVYTGTYDTEGVTPTKSGERQPIQITMP
